From PubChem BioAssay AID540353 (National Center for Advancing Translational Sciences (NCATS), 2011)
This list was built around the results that the source calls inconclusive (neither active nor inactive); the mix of calls is not that of the screen. Potencies of inconclusive entries are doubtful fits and often do not repeat. Activity calls are given as the source filed them. The call rests on the fitted dose curve; in most records, active means well fitted inhibition curve with a large enough effect; inconclusive means small, poorly fitted or top-dose-only effect; inactive means no such curve, though single readings can be large or run the other way.

Experiment: qHTS for Inhibitos of Bacillus subtilis Sfp phosphopantetheinyl transferase (PPTase): Chemistry Optimization Followup in B. Subtilis HM489
Conditions: B. subtilis HM489 (acpS-) growth, BacTiter-Glo, 5 h; series mostly up to 114 µM
Source text: Phosphopantetheinyl transfer is a process essential to cellular viability and maintenance. Cellular permeable and stable compounds acting as PPTase inhibitors are anticipated to be antimicrobial agents in organisms with complimenting genotypes. […] This experiment evaluated a series of test compounds for antimicrobial activity with B. subtilis HM489 (genotype: acpS- and sfp+), a strain that contains a targeted lesion in the acpS locus and thus requires a functional Sfp gene product for viability. [Mootz HD, 2001] This strain is expected to be sensitized to cell-permeable Sfp inhibitors. NIH Chemical Genomics Center [NCGC] NIH Molecular Libraries Probe Centers Network [MLPCN] MLPCN Grant: MH083266-01 Assay Submitter (PI): Michael Burkart, University of California, San Diego
Innoculum preparation. Bacillus subtilis HM489 is maintained on lysogeny broth (LB) solidified by the addition of 1.5% w/v agar. Single colonies were used to LB medium (2 mL) and shaken overnight at 30 masculineC. In the morning, this culture (100 uL) was used to seed a fresh LB medium (10 mL) and was shaken at 30 masculineC until the culture OD600 reached 0.5. This culture was diluted 1:100 in fresh LB medium to provide the inoculum below. Bacterial susceptibility. LB medium (2 uL) is dispensed into wells of a sterile white 1536-well plate. Test compounds (23 nL) prepared as serial dilutions in DMSO are added to the plate by pintool transfer. Innoculum (2 uL) is added; the plates are covered with a vented Kalypsys assay lid and incubated at 30 masculineC. After 5 hrs, Bac-Titer Glo (4 uL; Promega Corp, Madison, WI) is added to the plates. They are incubated 10 minutes at room temperature and then the luminescence detected in a ViewLux multimodal plate reader.

| SMILES | Potency |
| --- | --- |
| CCN1CCN(C(=S)c2ccc(O)cc2)CC1 | inactive |
| Cc1cc(C)nc(NC(=S)N2CCN(c3ccc(N4CCCC4)nn3)CC2)c1 | inconclusive: 93.7 µM [inhibitor, single point] |
| Cc1cc(C)nc(NC(=S)N2CCN(c3cc(C(F)(F)F)cc(C(F)(F)F)c3)CC2)c1 | inactive |
| Cc1cccc(NC(=S)N2CCN(c3cccc(C(F)(F)F)c3)CC2)c1 | inactive |
| Cc1cc(C)nc(NC(=S)N2CCN(c3ccc([N+](=O)[O-])cc3Cl)CC2)c1 | inactive |
| COc1cccc(NC(=S)N2CCN(c3ccc4ccccc4n3)CC2)n1 | inconclusive: 93.7 µM [inhibitor, single point] |
| COc1cccc(NC(=S)N2CCN(c3cccc(Cl)c3Cl)CC2)n1 | inconclusive: 26.4 µM [inhibitor, full curve, poor fit] |
| Cc1ccnc(NC(=S)N2CCNCC2)c1 | inconclusive: 13.2 µM [inhibitor, full curve, poor fit] |
| Cc1cc(C)nc(NC(=S)N2CCN(c3ccsc3)CC2)c1 | inconclusive: 1.87 µM [inhibitor, partial curve] |
| Cc1ccnc(NC(=S)NC2CCN(c3cccc(C(F)(F)F)c3)CC2)c1 | inconclusive: 33.2 µM [inhibitor, partial curve] |
| Cc1cc(C)nc(NC(=S)N2CCN(c3ccc4cn(C)nc4c3)CC2)c1 | inactive |
| CC(=O)N1CCN(C(=S)Nc2cc(C)ccn2)CC1 | inconclusive: 74.4 µM [inhibitor, partial curve, poor fit] |
| Cc1ccc(N2CCN(C(=S)Nc3cc(C)ccn3)CC2)cc1 | active: 33.2 µM |
| Cc1cc(C)nc(NC(=S)N2CCN(Cc3cccc(C(F)(F)F)c3)CC2)c1 | inconclusive: 52.7 µM [inhibitor, single point] |
| Cc1cc(C)nc(NC(=S)N2CCN(c3noc4ccccc34)CC2)c1 | inconclusive: 21 µM [inhibitor, full curve] |
| Cc1cc(C)nc(NC(=S)N2CCN(c3ccc4ncccc4c3[N+](=O)[O-])CC2)c1 | inactive |

Copied from the list.
Value of Cc1cc(C)nc(NC(=S)N2CCN(c3noc4ccccc34)CC2)c1 under Potency: inconclusive: 21 µM [inhibitor, full curve]
Value of CC(=O)N1CCN(C(=S)Nc2cc(C)ccn2)CC1 under Potency: inconclusive: 74.4 µM [inhibitor, partial curve, poor fit]

Next entries.

| SMILES | Potency |
| --- | --- |
| COc1cccc(NC(=S)N2CCN(c3ncc(C(F)(F)F)cc3Cl)CC2)n1 | inactive |
| Cc1cc(C)nc(NC(=S)N2CCN(c3cnc4nccn4c3)CC2)c1 | inconclusive: 5.91 µM [inhibitor, full curve] |
| Cc1ccnc(NC(=S)N2CC3CN(c4cccc(C(F)(F)F)c4)CC3C2)c1 (configuration not stated) | active: 5.91 µM |
| Cc1cc(C)nc(NC(=S)N2CCN(c3nccc(C(F)(F)F)n3)CC2)c1 | inconclusive: 18.7 µM [inhibitor, partial curve] |
| Cc1cc(C)nc(NC(=S)N2CCN(c3ncnc4sccc34)CC2)c1 | inconclusive: 41.8 µM [inhibitor, partial curve] |
| Cc1ccnc(CC(=S)N2CCN(c3cccc(C(F)(F)F)c3)CC2)c1 | inconclusive: 10.5 µM [inhibitor, partial curve] |
| Cc1cc(C)nc(NC(=S)N2CCN(c3ccc4occc4c3)CC2)c1 | inconclusive: 41.8 µM [inhibitor, partial curve] |
| Cc1cc(C)nc(NC(=S)N2CCN(Cc3cccc4ccccc34)CC2)c1 | inconclusive: 46.9 µM [inhibitor, partial curve, poor fit] |
| CN(C)c1ccc2nc(NC(=S)N3CCN(c4cccc(C(F)(F)F)c4)CC3)sc2c1 | inconclusive: 8.35 µM [inhibitor, full curve, poor fit] |
| Cc1cc(C)nc(NC(=S)N2CCN(c3nccc4ccccc34)CC2)c1 | inconclusive: 93.7 µM [inhibitor, single point] |
| Cc1ccnc(NC(=S)NCCNc2cccc(C(F)(F)F)c2)c1 | inconclusive: 11.8 µM [inhibitor, full curve, poor fit] |
| OCc1ccnc(NC(=S)N2CCN(c3cccc(C(F)(F)F)c3)CC2)c1 | active: 52.7 µM |
| Cc1cc(C)nc(NC(=S)N2CCN(S(=O)(=O)c3cccc(C(F)(F)F)c3)CC2)c1 | inconclusive: 16.7 µM [inhibitor, single point] |
| Cc1cc(C)nc(NC(=S)N2CCN(c3cc(C#N)cc(C#N)c3)CC2)c1 | inactive |
| Cc1ccnc(N(C)C(=S)N2CCN(c3cccc(C(F)(F)F)c3)CC2)c1 | inconclusive: 105 µM [inhibitor, partial curve, poor fit] |
| Cc1cc(C)nc(NC(=S)N2CCN(c3nc4ccccc4s3)CC2)c1 | inconclusive: 105 µM [inhibitor, partial curve, poor fit] |
